Measurements as given in article doi:10.1101/049148.
No constants are given. Whether binding was seen depends on the method and setting. Tags and fused reporters may be left off the sequences shown.

Biological target: T1, GST-Snf7 (budding yeast (W303 chromosomal DNA)) (UniProt P39929)
T1 sequence: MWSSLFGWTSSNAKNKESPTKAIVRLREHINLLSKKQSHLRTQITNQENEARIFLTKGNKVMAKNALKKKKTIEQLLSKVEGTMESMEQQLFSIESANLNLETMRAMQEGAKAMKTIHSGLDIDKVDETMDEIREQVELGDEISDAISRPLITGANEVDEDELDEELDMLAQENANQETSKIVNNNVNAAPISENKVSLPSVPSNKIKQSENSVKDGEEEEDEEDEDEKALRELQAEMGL
Test: pull-down

B1: recombinant heh2(1-308)-His6 (domain or fragment, UniProt Q03281 1-308)
chain: MDHRNLDPKTLKVSQLRRVLVENDVAFPANARKPVLVKLFEEKVRQRLQSSPEASKVRTSIQKVVKSGAKNADRKKTLKSKKLESSSSESKTVKDENVETNKRKREQISTDNEAKMQIQEEKSPKKKRKKRSSKANKPPESPPQSKSDGKATSADLTSELETVEELHKKDSSDDKPRVKELPKPELPNLKVSNEFLAQLNKELASAATENYDHSIKSTDLSSIRIETEEPVGPSTGAETRNESEVMENINLEVQPEVKEAKEELTKISETFDNQDEEDTSRLSSKKNIRSPKGRTRHFIANKTKRGID
B1 was tested, and the binding was “no binding”.
